Reference: PubChem BioAssay AID2549 (National Center for Advancing Translational Sciences (NCATS), 2010)
Out of some 240,000 compounds screened, about 1,300 (0.54%) were called active. Inconclusive results, whose numbers are uncertain, are shown with a selection of clear calls. Calls come from the whole dose curve; as a rule, active = well fitted inhibition curve with a large enough effect; inconclusive = small, poorly fitted or top-dose-only effect; inactive = flat fitted curve, though single readings scatter. Potencies beside an inconclusive call are fits to weak or partial responses and may not hold up.

Protein sequences, listed by entry. Tags and fused reporters are not part of them. Lines headed by an entry give the natural chain unless they say otherwise; changes in a name come on top.
UniProt P46063: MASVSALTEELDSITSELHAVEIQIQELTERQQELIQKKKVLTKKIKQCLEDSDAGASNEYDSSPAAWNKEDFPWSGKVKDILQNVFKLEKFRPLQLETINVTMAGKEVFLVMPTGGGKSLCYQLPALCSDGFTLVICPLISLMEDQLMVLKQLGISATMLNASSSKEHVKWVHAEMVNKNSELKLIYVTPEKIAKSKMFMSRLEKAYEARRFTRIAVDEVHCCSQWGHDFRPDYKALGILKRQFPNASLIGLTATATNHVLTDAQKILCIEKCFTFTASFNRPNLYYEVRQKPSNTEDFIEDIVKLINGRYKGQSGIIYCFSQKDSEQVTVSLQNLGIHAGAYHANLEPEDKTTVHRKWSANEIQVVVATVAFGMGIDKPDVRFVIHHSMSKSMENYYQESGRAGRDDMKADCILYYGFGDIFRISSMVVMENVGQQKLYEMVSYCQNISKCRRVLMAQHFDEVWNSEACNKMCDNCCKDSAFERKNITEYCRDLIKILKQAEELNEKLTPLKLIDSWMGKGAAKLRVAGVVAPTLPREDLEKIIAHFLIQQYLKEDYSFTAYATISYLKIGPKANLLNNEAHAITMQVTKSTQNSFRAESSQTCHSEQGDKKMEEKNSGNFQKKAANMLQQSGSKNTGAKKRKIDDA

What follows are molecules tested against ATP-dependent DNA helicase Q1 (Homo sapiens) (UniProt P46063) (assay: qHTS Assay for Inhibitors of RecQ-Like Dna Helicase 1 (RECQ1)). Settings: RECQ1 DNA unwinding, red fluorescence kinetic read; series mostly up to 57.3 µM.
Procedure, shortened: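 RECQ1T1 50 nM; forked duplex (20 bp + 30-nt ss tails) 200 nM, ATP 2 mM final; pH 8.0, 2 mM MgCl2, 2.5 ug/ml poly(dI-dC); 15 min compound preincubation; discontinuous kinetic read over 2 h at RT.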
Note: nearly all actives have a fitted effect of over 30% in size.
Potency is the fitted concentration of half-maximal effect.

SMILES | Potency | outcome
Cc1ccc(/C=C2\SC(=S)N(c3cccnc3)C2=O)o1 | inconclusive: 39.8 µM [inhibitor, single point] | –
Cc1ccc(NS(=O)(=O)c2ccc(NC(=O)c3cccc(NC(=O)C(C)C)c3)cc2)cc1 | inconclusive: 35.5 µM [inhibitor, single point] | –
CN(C)/C=C1\SC(=S)N(c2ccc(Br)cc2)C1=O | active: 31.6 µM | –
Cc1cccc(NC(=S)NNC(=O)c2ccccc2Br)c1 | inactive | –
CCCCNC(=O)c1onc(CSc2ccccc2F)c1C(=O)O | inconclusive: 39.8 µM [inhibitor, single point] | –
O=C(NNc1ccc(-c2csnn2)cc1)c1cc(Cl)cc(Cl)c1 | inactive | –
Cc1ccn(C(=O)c2cc3c(C)nn(-c4ccccc4)c3s2)n1 | inconclusive: 3.16 µM [inhibitor, single point] | –
COc1ccc(-c2nn(-c3ccccc3)cc2/C=N/Nc2ccc(S(N)(=O)=O)cc2[N+](=O)[O-])cc1OC | inconclusive: 35.5 µM [inhibitor, single point] | –
COc1ccc(-c2nnc(Nc3ccc(S(=O)(=O)Nc4nccs4)cc3)c3ccccc23)cc1 | inconclusive: 8.91 µM [inhibitor, partial curve] | –
O=C(CNS(=O)(=O)c1c(Cl)cccc1Cl)OCC(=O)c1ccc[nH]1 | inconclusive: 25.1 µM [inhibitor, single point] | –
CN(C)S(=O)(=O)c1cccc(NC(=O)COC(=O)/C=C/c2ccc(Br)o2)c1 | inconclusive: 15.8 µM [inhibitor, partial curve] | –
COc1ccc(OC)c(-c2c3cc(O)c(=O)cc-3oc3cc(O)c(O)cc23)c1 | active: 35.5 µM | –
COc1ccc(Br)cc1CNc1ccc(O)cc1 | active: 28.2 µM | –
O=C(O)c1cc(-c2ccc(/C=N/NC(=S)Nc3ccccc3)o2)ccc1Cl | inconclusive: 25.1 µM [inhibitor, single point] | –
O=C(NCCSc1ccccc1)c1ccccc1 | inconclusive: 4.47 µM [inhibitor, partial curve] | –
Cn1c(=O)c(NCCc2ccccc2)c2c3c(cccc31)C(=O)c1ccccc1-2 | active: 10 µM | –
CCOC(=O)c1c(C)oc2c1cc(O)c1ccccc12 | inconclusive: 1.12 µM [inhibitor, full curve] | –
C[N+](C)(C)CCC(=O)c1cccc2ccccc12 | inactive | –
COc1ccc(C(=O)COc2nc(C)cc(C)c2C#N)cc1 | inconclusive: 6.31 µM [inhibitor, single point] | –
COc1ccc(C(=O)C2CCCN(Cc3cccc4c3OCO4)C2)cc1OC (configuration not stated) | inconclusive: 0.141 µM [inhibitor, partial curve, poor fit] | –
COC(=O)c1ccccc1NC(=O)COC(=O)c1ccco1 | inactive | –
Cc1cc(C)c(C(=O)/C=C/c2cccc3ccccc23)c(=O)[nH]1 | inactive | –
O=C(/C=C/c1ccco1)Nc1sc2c(c1C(=O)O)CCC2 | active: 35.5 µM | –
C=Cc1c(C)/c2[n-]/c1=C\c1[n-]c(c(CC)c1C)/C=c1\[n-]c3c(c1C)C(=O)C(C(=O)[O-])C=3c1[n-]c(c(C)c1CCC(=O)[O-])\C=2.[Cu].[Na+].[Na+] (configuration not stated) | active: 1.12 µM | –

Taken from above:
Value of COC(=O)c1ccccc1NC(=O)COC(=O)c1ccco1 under Potency: inactive
Value of COc1ccc(Br)cc1CNc1ccc(O)cc1 under Potency: active: 28.2 µM

Next compounds follow:

SMILES | Potency | outcome
CC1(C)CC(N=c2cc(-c3ccccc3)oc3ccc(Cl)cc23)CC(C)(C)N1 | inactive | –
CCOc1ccc2noc3c2c1C(=O)c1ccccc1-3 | inactive | –
O=C1C=C(NNC(=O)c2ccncc2)CC(c2ccccc2)C1 (configuration not stated) | inconclusive: 0.562 µM [inhibitor, full curve, poor fit] | –
CCN(CC)S(=O)(=O)c1cccc(N=NC2=C(O)CCCC2=O)c1 | inconclusive: 20 µM [inhibitor, partial curve] | –
Cc1ccc(O)c(N=Cc2cc(Cc3ccccc3)cc([N+](=O)[O-])c2O)c1 | active: 12.6 µM | –
Oc1ccc(N2CCN(C(c3cccs3)c3nnnn3CCc3ccccc3)CC2)cc1 (configuration not stated) | inconclusive: 39.8 µM [inhibitor, single point] | –
CC1=C(C(=O)N2CCOCC2)C(c2cc(C)cs2)NC(=O)N1 (configuration not stated) | inconclusive: 35.5 µM [inhibitor, single point] | –
Cc1cccc(OCC(=O)Nc2cccc(C(=O)Nc3ccccc3C(=O)O)c2)c1 | inactive | –
CN(C)c1ccc(/C=N/N2C(=S)SC(C)(C)C2N(O)C(=O)Nc2ccc([N+](=O)[O-])cc2)cc1 (configuration not stated) | inconclusive: 6.31 µM [inhibitor, single point] | –
Cc1ccc(C2CC(=O)Oc3cc4c(cc32)OCO4)cc1 (configuration not stated) | active: 31.6 µM | –
COC(=O)c1ccc(Cn2c(O)c(N=NC(N)=S)c3ccccc32)o1 | inconclusive: 25.1 µM [inhibitor, single point] | –
CCOC(=O)c1cc(-c2ccc(N3CCOCC3)cc2)nn1-c1ccccc1C(=O)O | active: 11.2 µM | –
CCOC(=O)c1c(C)[nH]c(C(=O)COC(=O)C2(C)CC2(Cl)Cl)c1C (configuration not stated) | inactive | –
NS(=O)(=O)c1ccc(N/N=C/c2ccc(O)c(O)c2O)c([N+](=O)[O-])c1 | active: 3.16 µM | –
CCCn1c(C)nc2c(N3CCC(N(C)C)C3)nc(C)nc21 (configuration not stated) | inactive | –
O=S(=O)(c1ccccc1)N1CCN(Cc2ccccc2C(F)(F)F)CC1 | inconclusive: 6.31 µM [inhibitor, single point] | –
C(=C/c1nccc2c1[nH]c1ccccc12)/c1ccc2c(c1)OCO2 | inconclusive: 28.2 µM [inhibitor, partial curve] | –
CCC(CO)n1c(SCc2cc([N+](=O)[O-])cc3c2OCOC3)nc2ccccc2c1=O (configuration not stated) | inactive | –
CC(C)CN1CCN(Cc2cc(F)ccc2-n2cccn2)CC1CCO (configuration not stated) | inactive | –
CC(C)CCN1CCc2nc(-c3ccccc3)c3c(c2C1)COC(C)C3 (configuration not stated) | – | inactive [at 11.5 µM]
CCCSC1=N/C(=C\c2ccc([N+](=O)[O-])o2)C(=O)S1 | active: 12.6 µM | –
CCCN1CCN(C(=O)Cn2ncc3ccccc32)CC1 | inconclusive: 25.1 µM [inhibitor, single point] | –
O=C1c2ccccc2-c2onc3c(Oc4ccccc4)cc(O)c1c23 | inconclusive: 28.2 µM [inhibitor, single point] | –
